PubChem BioAssay AID1259425, University of Nebraska Medical Center – 2018
This is a random part of about 14,000 reagents. Reagents against one gene are numbered here. Not all columns of the deposit are shown. Reagent sequences are not shown. The record does not give: the time to read-out.

Test: 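Seek colon cancer weak points whose silencing resembles KSR1 loss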 (primary screen)
Cell system: HCT116 human colon cancer cells
Reagents: siRNA pool against human genes, 50 nM siRNA
Detection: 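After 50 nM siRNA pool, branched-DNA assay measures six marker transcripts per well, minus blank, normalised to the geometric mean of two housekeeping transcripts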
Reading the numbers: BNIP3L mRNA: higher = more BNIP3L transcript after knockdown; NDRG1 mRNA: higher = more NDRG1 transcript after knockdown

Silencing of CBFA2T3 (CBFA2/RUNX1 partner transcriptional co-repressor 3) resulted in: BNIP3L mRNA, set 1 = 0.0599; NDRG1 mRNA, set 1 = 0.149.
Depletion of TP53RK (TP53 regulating kinase) gave: BNIP3L mRNA, set 1 = 0.0838; NDRG1 mRNA, set 1 = 0.1.
Knock-down of ZSCAN9 (zinc finger and SCAN domain containing 9) resulted in: BNIP3L mRNA, set 1 = 0.115; NDRG1 mRNA, set 1 = 0.286.
After knock-down of PPP1R3E (protein phosphatase 1 regulatory subunit 3E), the screen gave BNIP3L mRNA, set 1 = 0.107; NDRG1 mRNA, set 1 = 0.201.
NOL12 (nucleolar protein 12) scored BNIP3L mRNA, set 1 = 0.216; NDRG1 mRNA, set 1 = 0.175.
After knock-down of WNT2 (Wnt family member 2), the screen gave BNIP3L mRNA, set 1 = 0.0657; NDRG1 mRNA, set 1 = 0.199.
Knock-down of FEZ2 (fasciculation and elongation protein zeta 2) resulted in: BNIP3L mRNA, set 1 = 0.0767; NDRG1 mRNA, set 1 = 0.122.
Depletion of KATNAL1 (katanin catalytic subunit A1 like 1) came out at: BNIP3L mRNA, set 1 = 0.146; NDRG1 mRNA, set 1 = 0.266.
TOX4 (TOX high mobility group box family member 4) gave BNIP3L mRNA, set 1 = 0.111; NDRG1 mRNA, set 1 = 0.202.
With knock-down of DBNDD1 (dysbindin domain containing 1), the record shows BNIP3L mRNA, set 1 = 0.128; NDRG1 mRNA, set 1 = 0.285.
With knock-down of RAB11FIP4 (RAB11 family interacting protein 4), the screen gave BNIP3L mRNA, set 1 = 0.126; NDRG1 mRNA, set 1 = 0.429.
Against MYCT1 (MYC target 1) the deposit lists BNIP3L mRNA, set 1 = 0.119; NDRG1 mRNA, set 1 = 0.286.
For ZEB1 (zinc finger E-box binding homeobox 1), the entry reads BNIP3L mRNA, set 1 = 0.0908; NDRG1 mRNA, set 1 = 0.133.
MAN2C1 (mannosidase alpha class 2C member 1) scored BNIP3L mRNA, set 1 = 0.169; NDRG1 mRNA, set 1 = 0.245.
Silencing of C4BPB (complement component 4 binding protein beta) resulted in: BNIP3L mRNA, set 1 = 0.19; NDRG1 mRNA, set 1 = 0.224.
SPANXB1 (SPANX family member B1) #1 gave BNIP3L mRNA, set 1 = 0.181; NDRG1 mRNA, set 1 = 0.116.
After knock-down of SPANXB1 (SPANX family member B1) #2 the results were BNIP3L mRNA, set 1 = 0.162; NDRG1 mRNA, set 1 = 0.1.
Knock-down of TRAF3IP2 (TRAF3 interacting protein 2) resulted in: BNIP3L mRNA, set 1 = 0.236; NDRG1 mRNA, set 1 = 0.14.
Knock-down of PDCL (phosducin like) gave: BNIP3L mRNA, set 1 = 0.273; NDRG1 mRNA, set 1 = 0.325.

2 entries from above, reformatted:
KATNAL1 (katanin catalytic subunit A1 like 1)
- BNIP3L mRNA, set 1: 0.146
- NDRG1 mRNA, set 1: 0.266

TOX4 (TOX high mobility group box family member 4)
- BNIP3L mRNA, set 1: 0.111
- NDRG1 mRNA, set 1: 0.202
